Results as given in patent publication US20250326858A1.
Results are given in words; binding and its absence hold for the method and conditions named. Some binding calls cover weakened binding; strength is not graded here. For some assays here: Where a sequence is shown, tags or fusion partners need not be part of it.

T1: Recombinant Rat TPBG/5T4 with 6His-SUMO, N-terminus tags (rat) (UniProt Q5PQV5)
T1 sequence (looked up): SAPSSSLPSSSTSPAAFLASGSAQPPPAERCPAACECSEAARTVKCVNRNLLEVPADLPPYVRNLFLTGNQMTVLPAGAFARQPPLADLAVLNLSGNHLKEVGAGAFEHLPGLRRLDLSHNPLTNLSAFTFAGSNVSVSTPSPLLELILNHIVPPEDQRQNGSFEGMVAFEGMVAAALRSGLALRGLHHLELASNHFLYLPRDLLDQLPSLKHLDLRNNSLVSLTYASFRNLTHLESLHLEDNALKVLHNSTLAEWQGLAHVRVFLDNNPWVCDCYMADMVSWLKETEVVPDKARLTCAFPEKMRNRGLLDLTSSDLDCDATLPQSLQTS

T2: recombinant cyno 5T4-Fc (cynomolgus monkey) (UniProt Q4R8Y9)
T2 sequence: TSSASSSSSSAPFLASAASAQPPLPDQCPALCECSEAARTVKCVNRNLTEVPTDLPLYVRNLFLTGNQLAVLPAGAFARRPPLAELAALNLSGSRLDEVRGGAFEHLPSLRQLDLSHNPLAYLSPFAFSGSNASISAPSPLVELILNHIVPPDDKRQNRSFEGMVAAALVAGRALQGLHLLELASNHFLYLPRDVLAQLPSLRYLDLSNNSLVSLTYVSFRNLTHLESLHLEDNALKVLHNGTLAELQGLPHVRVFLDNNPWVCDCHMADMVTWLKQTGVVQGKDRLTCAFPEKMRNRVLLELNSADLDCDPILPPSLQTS

T3: human 5T4, Internal (Lot 20-019-62) (human) (UniProt Q13641)
T3 sequence: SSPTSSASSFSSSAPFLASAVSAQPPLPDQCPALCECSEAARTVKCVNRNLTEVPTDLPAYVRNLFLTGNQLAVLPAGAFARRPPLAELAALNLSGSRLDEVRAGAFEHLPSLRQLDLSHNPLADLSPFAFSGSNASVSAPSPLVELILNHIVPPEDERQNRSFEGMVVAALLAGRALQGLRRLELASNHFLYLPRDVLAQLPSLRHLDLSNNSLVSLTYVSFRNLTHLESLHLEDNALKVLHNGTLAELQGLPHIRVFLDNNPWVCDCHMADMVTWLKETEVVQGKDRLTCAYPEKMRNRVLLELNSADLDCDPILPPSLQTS


How the values were obtained:
[1] = molecular target: T1, Recombinant Rat TPBG/5T4 with 6His-SUMO, N-terminus tags (rat); assay: ELISA (antigen coated) and Octet (antibody on Protein A biochip, antigen in solution)
[2] = molecular target: T2, recombinant cyno 5T4-Fc (cynomolgus monkey); assay: as above
[3] = molecular target: T3, human 5T4, Internal (Lot 20-019-62) (human); assay: Octet (BLI), monovalent format: antibody on AHC sensor, human 5T4 in solution; internal lot

binding [1]	binding [2]	binding [3]	Binder
binds	binds	binds	mAbA15 (antibody, human IgG1, kappa, V domains shown) VH: EVQLVESGGGLVQPGGSLRLSCAASGFTFSSYYIHWVRQAPGKGLEWVAYITSTGSYTEYADSVKGRFTISADTSKNTAYLQMNSLRAEDTAVYYCARYDRSTRYSGLDYWGQGTLVTVSS VL: DIQMTQSPSSLSASVGDRVTITCRASQSVSSAVAWYQQKPGKAPKLLIYSASSLYSGVPSRFSGSRSGTDFTLTISSLQPEDFATYYCQQAYATPVTFGQGTKVEIKR
binds	binds	binds	mAbA17 (antibody, human IgG1, kappa, V domains shown) VH: EVQLVESGGGLVQPGGSLRLSCAASGFTFSRYWIHWVRQAPGKGLEWVAAIFPYSGSTLYADSVKGRFTISADTSKNTAYLQMNSLRAEDTAVYYCARSPSRSILPSGLDYWGQGTLVTVSS VL: DIQMTQSPSSLSASVGDRVTITCRASQSVSSAVAWYQQKPGKAPKLLIYSASSLYSGVPSRFSGSRSGTDFTLTISSLQPEDFATYYCQQGDGSPYTFGQGTKVEIKR
binds	binds		mAbA4 (antibody, human IgG1, kappa, V domains shown) VH: EVQLVESGGGLVQPGGSLRLSCAASGFTFSRYYIHWVRQAPGKGLEWVAFISPGGSYTYYADSVKGRFTISADTSKNTAYLQMNSLRAEDTAVYYCAREYYSMGVLDYWGQGTLVTVSS VL: DIQMTQSPSSLSASVGDRVTITCRASQSVSSAVAWYQQKPGKAPKLLIYSASSLYSGVPSRFSGSRSGTDFTLTISSLQPEDFATYYCQQAYESPYTFGQGTKVEIKR
